The full ranking holds about 33,000 sequences; the median of “E-score (-0.5 to 0.5)” is about -0.0014, and the highest 2% start at about 0.25. Some of the results follow.
Target: T1, Cad1 (UniProt P24813)
T1 sequence: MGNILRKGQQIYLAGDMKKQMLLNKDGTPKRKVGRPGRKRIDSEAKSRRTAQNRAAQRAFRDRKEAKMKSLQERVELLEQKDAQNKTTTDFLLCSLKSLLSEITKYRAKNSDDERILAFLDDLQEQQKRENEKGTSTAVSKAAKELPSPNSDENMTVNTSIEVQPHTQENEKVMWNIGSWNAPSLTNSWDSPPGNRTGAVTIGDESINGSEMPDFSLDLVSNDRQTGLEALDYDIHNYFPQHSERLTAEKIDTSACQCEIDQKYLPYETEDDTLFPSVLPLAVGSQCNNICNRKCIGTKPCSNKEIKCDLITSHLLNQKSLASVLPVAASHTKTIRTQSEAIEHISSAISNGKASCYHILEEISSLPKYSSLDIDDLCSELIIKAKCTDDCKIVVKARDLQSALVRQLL
Test: PBM E-score (8-mer binding enrichment) (E-score (-0.5 to 0.5)); higher = stronger / more preferred TF binding
Conditions: protein concentration: 100 nM; construct: GST-full length
In short: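 Bound GST-tagged yeast transcription factors, applied at about 100-200 nM to double-stranded universal all-10-mer Agilent arrays, were detected with fluorescent anti-GST. Scans were normalised with masliner. A modified Wilcoxon-Mann-Whitney statistic, the E-score, was assigned to each ungapped eight-base word pooled with its reverse complement by the Universal PBM Analysis Suite.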

Sequence | PBM E-score
ATTTAGGC | 0.041
CAGATCTC | 0.105
AGGCTCCC | -0.299
TCCAACCA | -0.0348
ATCTAGGG | -0.0713
ATCGTGCC | 0.102
GACGTCTC | -0.0334
GAGTGAAA | 0.0627
ATCAGGAT | 0.163
CTTCAAAG | -0.146
CAGTCCAC | -0.28
CCAGGTAG | -0.00184
CGACGTAG | -0.197
ATGTACAG | -0.088
CAATTCGA | -0.0688
GCTTATCC | 0.0881
ATCCGGTA | -0.0922
AGAATTTC | -0.0202
AGAGATGC | -0.158
ATGTCCAG | -0.011
ATCCGGAT | 0.0462
ACATCAAA | -0.0507
CCAAAGGA | -0.093
ACCGTACG | -0.127
GGATCGAC | -0.0419

Sequence | PBM E-score
ATTTGAAA | 0.251
ACAACCCT | -0.16
CTACCAAC | 0.0578
GGACCGCA | -0.0231
ACTCAACA | 0.127
CGTGAGGA | -0.0764
AGACGCAG | -0.0654
CTTACCGC | 0.0543
GCCAATGA | -0.202
GACGCTGC | -0.00572
AGTTACCC | -0.0809
ACTAAAGA | -0.138
CAGTTTTA | 0.0321
ACCCTAGA | -0.0611
CCCCGGGC | -0.309
CTGTGGAC | -0.0582
CAAGGCAC | -0.154
GTAGTTCA | -0.00498
AAGCACTG | 0.201
TATAAGCA | 0.213
GTACCTGA | 0.0805
AGATATTG | 0.106
AACTCCTA | -0.088
CCGTTTGC | -0.085
GAGGACTC | -0.255

Sequence | PBM E-score
CCAGCTTA | 0.128
AATATAAG | 0.297
GGCAGAGA | -0.03
CACCGGCG | -0.0503
AACCTGAT | 0.0729
AATACTGT | 0.183
AACTGCAT | 0.119
TGACGCAA | 0.00382
CGGCCATC | -0.139
ACGAATCA | 0.104
AATATGCT | 0.208
CAATCCTC | -0.0001
AGTGGGGG | -0.374
AGAAGTTG | -0.188
ATGGAGCC | -0.245
TAATGTGA | 0.236
AGTAGGGA | -0.139
CTACGCTC | -0.146
ATCTCCTC | -0.121
GCTCTGTA | -0.11
AGTAAAAA | 0.0197
AGCCTCAC | -0.137
CCGAATGA | 0.114
CGGCGCAC | 0.0919
ACCACCGT | -0.17

Sequence | PBM E-score
AATGAACC | -0.036
AATATTCC | 0.297
ACGGGGGG | -0.442
AAATAATT | 0.295
ATTTTGCG | 0.051
GCGCCCCC | -0.361
CCGTCGAG | 0.123
AAGGGTTA | -0.0751
GGTGCTTA | 0.117
ACTCTATC | 0.0099
ATACGTTC | -0.088
CAAATCGA | 0.102
ACAGTACG | 0.0255
GATACGAA | 0.0432
GACGCCGC | 0.0922
ACCCGGCA | -0.0218
CAACAAAG | 0.0781
CCGCAATA | 0.233
CGATGAGC | -0.0574
AATAGTAC | 0.0507
ATCGGGCG | -0.0127
ATGCGCAT | 0.334
GCGTGAAC | -0.0514
AAGGTGGC | -0.106
CTATGAAG | -0.00053

Sequence | PBM E-score
CGTTTGAA | -0.0582
CGTACGAG | -0.126
GGAGCTCA | -0.128
ATTGCTAG | 0.014
ACAGGCTC | -0.127
AGCGTGGA | 0.00412
CGGTTCAA | -0.152
GGGGTAAC | -0.162
GCCAGGGA | -0.103
ATCACAAA | 0.147
AACATCGA | 0.153
CACAGCCG | 0.0914
CCGTTAAA | -0.135
AGTCCTTA | -0.0318
CTCAGAAC | 0.106
ATACTGTC | 0.0829
CTCCTGCA | -0.102
AGGCGCGC | 0.161
AGAAGTCA | 0.0277
AGAGAACG | 0.083
ATGTTTAA | 0.182
CGACAGAA | 0.102
ACAAAGGG | -0.0853
CGGCTACG | -0.106
GAGTCTAA | -0.166

Quoted from the entries so far (7 entries):
Sequence | PBM E-score
CACAGCCG | 0.0914
CCGTTAAA | -0.135
AGTCCTTA | -0.0318
CTCAGAAC | 0.106
ATACTGTC | 0.0829
CTCCTGCA | -0.102
AGGCGCGC | 0.161

Remaining list, next part:

Sequence | PBM E-score
GCTTTCAA | 0.19
CGTGCCAC | -0.091
CATCCGAG | 0.0112
GGCACACA | -0.127
CGTGTTAA | 0.164
AAGCTTAT | 0.175
TAGTAATA | 0.371
AGATGGGC | -0.0983
ACTACCAT | -0.0757
ACTAGGGA | -0.257
CTCGGTAA | 2e-05
AGATATCT | 0.0216
AACAACAC | 0.155
AAGAGACT | -0.228
CCATTCGG | -0.0615
AACATTAC | 0.109
ACCGATAT | 0.0279
CGAAACCA | 0.11
CATCAATA | 0.197
ACGCCGAA | -0.0244
CGAACCCG | -0.071
CAATAGGA | -0.021
ACAAACGC | -0.0375
CTATCCGC | 0.207
GACCCAGC | -0.263

Part of the list above, reformatted:
Sequence,PBM E-score
AGATGGGC,-0.0983
ACTACCAT,-0.0757
ACTAGGGA,-0.257
CTCGGTAA,2e-05
AGATATCT,0.0216
AACAACAC,0.155

The results go on:

Sequence | PBM E-score
CTTATTGA | 0.0117
CAGGTCGG | -0.0877
ACCACTTA | -0.00031
GCAGGAGA | -0.0235
CAGCCATC | -0.00262
AGCGGGCG | -0.11
ATACTACG | 0.0717
AGATTCTA | -0.0987
ACCCGTAT | 0.0843
GCGTCTAC | 0.0366
AGGCTTAG | 0.0871
GCAAGGAA | -0.0012
AATTAAAC | 0.13
CAAAGTAC | 0.0445
CACGAATA | 0.128
TATACGCA | 0.11
CCACTCGG | -0.0924
AGTCGCGC | 0.212
CCGATGAC | 0.117
CGTCCTGC | -0.14
CGATGACC | -0.00705
ACAGCGAT | -0.0854

Source: the supplement of paper PMC3334620
